Source: PubChem BioAssay AID2685 (National Center for Advancing Translational Sciences (NCATS), 2010)
This is one part of the list. These are further read-outs of the screen, such as a control signal, another cell line or another target. No call is given for them. The list favours compounds with an active or inconclusive main result. The note in brackets gives the kind of curve behind each potency; many fits are weak.

Experiment: qHTS Assay for Lipid Storage Modulators in Drosophila S3 Cells;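 on cell number change: cells counted by Cell Tracker Red CMTPX staining in the red channel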
Conditions: BODIPY lipid droplet fluorescence, 18-24 h; for cell number change: measured here: cell count max response, cells fed with added oleic acid
In short: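 Drosophila S3 cells loaded with oleic acid (400 uM, as added) and compounds at several concentrations; lipid droplets imaged by 488-nm laser-scanning cytometry, 500–530 nm intensity and object ratio to cell channel. Percent activity normalized to 20 uM Triacsin C.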

[1] = measured here: cell number channel AC50, cells fed with added oleic acid
[2] = measured here: lipid fluorescence (Fed channel) AC50, cells fed with added oleic acid

SMILES | cell number change | AC50 [1] | AC50 [2]
COc1cccc(OCc2cc(C(=O)N(C)C3CC(C)(C)NC(C)(C)C3)no2)c1 | 30.2% | 29.1 µM [rising, single point] | 
C#CCOc1c(/C=C\c2nc(O)c([N+](=O)[O-])c(=O)[nH]2)cc(Br)cc1OC | 17.6% |  | 29.1 µM [rising, single point]
CC(C)=CCc1c(O)ccc(C(=O)Cc2ccccc2)c1O | -44.3% | 13 µM [falling, partial curve] | 23.1 µM [falling, partial curve]
COC(=O)CCNC(=O)Cc1c(C)n(C(=O)c2ccc(Cl)cc2)c2ccc(OC)cc12 | 28.4% |  | 11.6 µM [rising, single point]
Cc1ccc(-n2c(SCC(=O)N3CCC(C(=O)O)CC3)nc3ccccc3c2=O)cc1C | 5.88% |  | 6.51 µM [rising, partial curve, poor fit]
Cc1cc(-c2n[nH]c(=S)n2/N=C/c2ccco2)n[nH]1 | 16% |  | 3.26 µM [rising, single point]
COc1cccc(C(=O)C2CCCN(C/C=C/c3ccccc3OC)C2)c1 (stereo not drawn) | 9.48% |  | 
COCCn1c(-c2ccccc2)cnc1N | -13.8% | 6.51 µM [rising, single point] | 5.17 µM [rising, single point]
COc1cc(NC(=O)COC(=O)CCOc2ccc(C)cc2)cc(OC)c1 | 50.5% | 5.8 µM [rising, partial curve, poor fit] | 
Nc1ccc(C(=O)N/N=C/c2sc(N3CCOCC3)nc2-c2ccccc2)cc1 |  |  | 2.91 µM [rising, full curve]
O=C(CSc1nncs1)N1CCN(C(=O)c2ccco2)CC1 | -12.6% |  | 2.59 µM [falling, full curve, poor fit]
O=c1c2ccccc2[nH]c(=S)n1Cc1cccnc1 | -6.87% |  | 0.651 µM [rising, full curve, poor fit]
CCN(CC)S(=O)(=O)c1cccc(C(=O)N/N=C/c2ccc(OC)c(O)c2)c1 | 24.2% |  | 
CCCc1cc(=O)oc2cc(C)cc(OC(=O)c3ccco3)c12 | -9.91% | 0.326 µM [falling, full curve, poor fit] | 
CCCCn1c(-c2csc3c2CCCC3)n[nH]c1=S | -3.31% |  | 
CC(=O)Nc1c(O)nc(SCC(=O)Nc2ccc(C(C)=O)cc2)[nH]c1=O | -10% |  | 
COc1cc2c(cc1OC)CN(C(=O)c1cc(Cl)nc(Cl)c1)CC2 |  |  | 0.731 µM [rising, partial curve, poor fit]
Cc1ccc(NC(=O)N(Cc2ccc3c(c2)OCO3)Cc2cc3cc4c(cc3[nH]c2=O)OCCO4)cc1 | 36.2% | 0.231 µM [rising, full curve] | 2.31 µM [rising, full curve]
CCc1ccc(CN2C(=O)c3ccccc3C2C(=O)NC(C)CC)cc1 (stereo not drawn) | -29.9% |  | 16.4 µM [falling, partial curve]
CCN(CC)C(=O)Oc1ccc2c(=O)c(-c3ccccc3)coc2c1 | 6.58% |  | 5.17 µM [rising, full curve, poor fit]

A section of the results above:
SMILES | cell number change | AC50 [1] | AC50 [2]
COc1cccc(OCc2cc(C(=O)N(C)C3CC(C)(C)NC(C)(C)C3)no2)c1 | 30.2% | 29.1 µM [rising, single point] | 
C#CCOc1c(/C=C\c2nc(O)c([N+](=O)[O-])c(=O)[nH]2)cc(Br)cc1OC | 17.6% |  | 29.1 µM [rising, single point]
CC(C)=CCc1c(O)ccc(C(=O)Cc2ccccc2)c1O | -44.3% | 13 µM [falling, partial curve] | 23.1 µM [falling, partial curve]
COC(=O)CCNC(=O)Cc1c(C)n(C(=O)c2ccc(Cl)cc2)c2ccc(OC)cc12 | 28.4% |  | 11.6 µM [rising, single point]
Cc1ccc(-n2c(SCC(=O)N3CCC(C(=O)O)CC3)nc3ccccc3c2=O)cc1C | 5.88% |  | 6.51 µM [rising, partial curve, poor fit]
Cc1cc(-c2n[nH]c(=S)n2/N=C/c2ccco2)n[nH]1 | 16% |  | 3.26 µM [rising, single point]
COc1cccc(C(=O)C2CCCN(C/C=C/c3ccccc3OC)C2)c1 (stereo not drawn) | 9.48% |  | 

(cont.)

SMILES | cell number change | AC50 [1] | AC50 [2]
Cn1c(=O)[nH]c(=O)c2c1nc(CN1CCN(c3cccc(Cl)c3)CC1)n2CCc1ccccc1 | -37.5% | 29.1 µM [falling, single point] | 2.31 µM [rising, partial curve]
CC(C)(C)n1nnnc1CN1CCSCC1 | -99.4% | 29.1 µM [falling, single point] | 
NC(N)=NS(=O)(=O)c1ccc(NC(=S)NC(=O)c2sc3ccccc3c2Cl)cc1 | 9.76% |  | 
C=CCn1c(O)c(N=NC(=O)c2cccnc2)c2cc(Br)ccc21 | 36.8% | 6.51 µM [falling, single point] | 3.66 µM [falling, single point]
O=C(/C=N/O)Nc1ccccc1C(=O)O | -12.9% |  | 0.13 µM [falling, full curve]
Cc1nc2ccc(NC(=O)c3ccc(S(=O)(=O)N(C)C)cc3)cc2s1 | 4.33% | 0.0058 µM [falling, full curve, poor fit] | 
O=C(N/N=C/c1ccc(Cl)cc1Cl)c1cccc(N2CCCC2=O)c1 | -17.9% | 3.66 µM [rising, partial curve, poor fit] | 
CC1CN(C(=O)c2ccccc2OCc2ccccc2Cl)CC(C)O1 (stereo not drawn) | 5.94% |  | 29.1 µM [rising, single point]
Cc1ccc(-n2ncc3c(SCC(=O)Nc4cc(C)on4)ncnc32)c(C)c1 | 33.6% | 0.651 µM [rising, full curve, poor fit] | 25.9 µM [rising, single point]
COc1cccc(C(=O)Nc2ccc(C(=O)NCC(C)C)cc2)c1 | 18.4% |  | 2.06 µM [rising, partial curve]
Cc1ccc(CN2CCc3[nH]c(=O)[nH]c(=O)c3C2)cc1 | 36.9% |  | 
COc1ccc(C(CNC(=O)COc2ccc(F)cc2Cl)N2CCOCC2)cc1 (stereo not drawn) |  | 3.26 µM [rising, single point] | 
COc1ccc([C@H]2CC(=O)C=C(c3cccc(Cl)c3)C2)cc1 | -2.26% | 0.92 µM [falling, single point] | 0.731 µM [falling, single point]
CCOCCCNC(=O)c1c(-c2ccccc2)noc1C |  |  | 14.6 µM [falling, partial curve]
O=C(NCC1CCCO1)c1ccc2nc(N3CCCCC3)sc2c1 (stereo not drawn) | -0.553% |  | 
CN(C1CCCCC1)S(=O)(=O)c1ccc(C(=O)Nc2sc3c(c2C(N)=O)CC(C)(C)NC3(C)C)cc1 | 21.7% |  | 
CN(c1ccc(C(=O)NCCSCc2ccco2)cc1)S(C)(=O)=O | -22.3% |  | 
CC(=O)Nc1ccc(NC(=O)C(C)OC(=O)CCCc2c[nH]c3ccccc23)cc1 (stereo not drawn) | 47.1% | 13 µM [rising, partial curve] | 
COc1ccc(/C=N/NC(=O)CN2CCSCC2)c(OC)c1 | -47.5% | 2.91 µM [rising, single point] | 6.51 µM [rising, single point]
